Data as given in doi:10.1101/2020.06.26.173740.
These are yes or no findings as the source states them, for the method shown.

Target: R149C mutant form of E. coli MelB (melibiose permease) (E. coli) (UniProt P02921)
Test: SEC

binding: no binding (tested: applied at ∼5 mg/ml)
Substance: R149C mutant form of E. coli MelB (melibiose permease) (from UniProt P02921 1-473)
